Series [1] concerns A549, H1299, H1975 human lung cancer lines and BEAS-2B normal cell line, each cultured alone. Put plainly: VOCs headspace analysis (ITEX GC-MS) of mono-culture groups (Format-1), bulk cell samples 1×10^4 cells. Details: key to Category (VOC increased or decreased relative to the control): ↑: Increased; ↓: decreased; ↑*: <0.01; ↑**: <0.001. The format is cell-based. The following applies: for VOC level in headspace, area under curve (AUC) normalized by STD AUC: bulk 1 × 10^4 cell; for Category (VOC increased or decreased relative to the control): mono-culture groups (Format-1), 48 h incubation, averaged peak area (n = 3).

Series [2] relates to different-cell pairs of BEAS-2B, A549, H1299, H1975 without physical contact under a mutual headspace. Put plainly: VOCs headspace analysis (ITEX GC-MS) of different-cell pair co-culture headspace groups (Format-3), bulk cell samples. The format is cell-based, human. Details: key to Category (VOC increased or decreased relative to the control): ↑: Increased; ↓: decreased; ↑*: <0.01; ↑**: <0.001. The following applies: for VOC level in headspace, area under curve (AUC) normalized by STD AUC: bulk 1 × 10^4 cell; for Category (VOC increased or decreased relative to the control): different-cell pair co-culture headspace (Format-3), averaged peak area (n = 3).

No dose or concentration is given here for some results.

For `CCO` [VOC78], the “VOC level in headspace, area under curve (AUC) normalized by STD AUC” value (from here on “VOC level … (AUC) normalized by STD AUC”) amounted to 0 in series [1] (A (BEAS-2B) mono-culture); 5.613 in series [1] (B (A549) mono-culture); 6.3364 in series [1] (C (H1299) mono-culture); 0 in series [1] (D (H1975) mono-culture); 5.416 in series [2] (A + B (BEAS-2B + A549)); 5.832 in series [2] (A + C (BEAS-2B + H1299)). The “VOC level … (AUC) normalized by STD AUC” value stood at 0 in series [2] (A + D (BEAS-2B + H1975)), 2.398 in series [2] (B + C (A549 + H1299)), 1.36 in series [2] (B + D (A549 + H1975)) and 0.3177 in series [2] (C + D (H1299 + H1975)).
Consider `CC(C)C(C)C(C)(C)C` (stereo not drawn) [VOC47], for which the “VOC level … (AUC) normalized by STD AUC” value in series [1] (A (BEAS-2B) mono-culture) came out at 5.014; in series [1] (B (A549) mono-culture) it was 0; in series [1] (C (H1299) mono-culture), 2.3932; in series [1] (D (H1975) mono-culture), 0; in series [2] (A + B (BEAS-2B + A549)), 5.359; in series [2] (A + C (BEAS-2B + H1299)), 7.2. For the same compound, the “VOC level … (AUC) normalized by STD AUC” value in series [2] (A + D (BEAS-2B + H1975)) is 0; in series [2] (B + C (A549 + H1299)), 5.336; in series [2] (B + D (A549 + H1975)) it was 0; in series [2] (C + D (H1299 + H1975)), 3.926.
For the compound `Cc1ccccc1C` [o-Xylene], the “Category (VOC increased or decreased relative to the control)” value was “↓” in series [1] and “↑” in series [2] (72 h).
Turning to `CC(=O)CCOC(C)C` [4-Isopropoxy-2-butanone], the figures for the “Category (VOC increased or decreased relative to the control)” value in series [1] and in series [2] (48 h) were “↑” and “↓”, respectively.
With `CC(=O)c1ccc(C(C)=O)cc1` [VOC89], the “VOC level … (AUC) normalized by STD AUC” value in series [1] (A (BEAS-2B) mono-culture) was determined as 0; in series [1] (B (A549) mono-culture), 0; in series [1] (C (H1299) mono-culture), 0; in series [1] (D (H1975) mono-culture) it was 9.8462; in series [2] (A + B (BEAS-2B + A549)), 0; in series [2] (A + C (BEAS-2B + H1299)), 0. Also, the “VOC level … (AUC) normalized by STD AUC” value was determined as 4.323 in series [2] (A + D (BEAS-2B + H1975)), 0 in series [2] (B + C (A549 + H1299)), 7.354 in series [2] (B + D (A549 + H1975)) and 0 in series [2] (C + D (H1299 + H1975)).
With `CCCCCCCCCCCCC` [VOC13], the “VOC level … (AUC) normalized by STD AUC” value stood at 0 in series [1] (A (BEAS-2B) mono-culture); 0 in series [1] (B (A549) mono-culture); 0 in series [1] (C (H1299) mono-culture); 6.487 in series [1] (D (H1975) mono-culture); 0 in series [2] (A + B (BEAS-2B + A549)); 0 in series [2] (A + C (BEAS-2B + H1299)). The “VOC level … (AUC) normalized by STD AUC” value in series [2] (A + D (BEAS-2B + H1975)) was 0; in series [2] (B + C (A549 + H1299)) it was 0; in series [2] (B + D (A549 + H1975)), 5.063; in series [2] (C + D (H1299 + H1975)), 0.
As to `CCCCCCCCCCCCCCCC(C)=O` [VOC35], the “VOC level … (AUC) normalized by STD AUC” value stood at 0 in series [1] (A (BEAS-2B) mono-culture); 6.902 in series [1] (B (A549) mono-culture); 0 in series [1] (C (H1299) mono-culture); 5.215 in series [1] (D (H1975) mono-culture); 4.2 in series [2] (A + B (BEAS-2B + A549)); 0 in series [2] (A + C (BEAS-2B + H1299)). Also, the “VOC level … (AUC) normalized by STD AUC” value in series [2] (A + D (BEAS-2B + H1975)) is listed as 2.035; in series [2] (B + C (A549 + H1299)), 0; in series [2] (B + D (A549 + H1975)) it was 9.132; in series [2] (C + D (H1299 + H1975)), 0.

The record behind these values is patent publication US20260079169A1, “VOLATILE ORGANIC COMPOUNDS AS MARKERS FOR CELLULAR COMMUNICATION” (Technion Research and Development Foundation Limited, priority 2020, published 2026).
